These results are taken from publication PMC4894971.

Sequences of proteins named here, by UniProt entry; tags and fusion partners are left off. A change or cut given only in a name is not applied to a line headed by its entry. A line that says so, or that is headed by a name, gives the form on record, which may keep a tag or linker.
UniProt Q3TKT4: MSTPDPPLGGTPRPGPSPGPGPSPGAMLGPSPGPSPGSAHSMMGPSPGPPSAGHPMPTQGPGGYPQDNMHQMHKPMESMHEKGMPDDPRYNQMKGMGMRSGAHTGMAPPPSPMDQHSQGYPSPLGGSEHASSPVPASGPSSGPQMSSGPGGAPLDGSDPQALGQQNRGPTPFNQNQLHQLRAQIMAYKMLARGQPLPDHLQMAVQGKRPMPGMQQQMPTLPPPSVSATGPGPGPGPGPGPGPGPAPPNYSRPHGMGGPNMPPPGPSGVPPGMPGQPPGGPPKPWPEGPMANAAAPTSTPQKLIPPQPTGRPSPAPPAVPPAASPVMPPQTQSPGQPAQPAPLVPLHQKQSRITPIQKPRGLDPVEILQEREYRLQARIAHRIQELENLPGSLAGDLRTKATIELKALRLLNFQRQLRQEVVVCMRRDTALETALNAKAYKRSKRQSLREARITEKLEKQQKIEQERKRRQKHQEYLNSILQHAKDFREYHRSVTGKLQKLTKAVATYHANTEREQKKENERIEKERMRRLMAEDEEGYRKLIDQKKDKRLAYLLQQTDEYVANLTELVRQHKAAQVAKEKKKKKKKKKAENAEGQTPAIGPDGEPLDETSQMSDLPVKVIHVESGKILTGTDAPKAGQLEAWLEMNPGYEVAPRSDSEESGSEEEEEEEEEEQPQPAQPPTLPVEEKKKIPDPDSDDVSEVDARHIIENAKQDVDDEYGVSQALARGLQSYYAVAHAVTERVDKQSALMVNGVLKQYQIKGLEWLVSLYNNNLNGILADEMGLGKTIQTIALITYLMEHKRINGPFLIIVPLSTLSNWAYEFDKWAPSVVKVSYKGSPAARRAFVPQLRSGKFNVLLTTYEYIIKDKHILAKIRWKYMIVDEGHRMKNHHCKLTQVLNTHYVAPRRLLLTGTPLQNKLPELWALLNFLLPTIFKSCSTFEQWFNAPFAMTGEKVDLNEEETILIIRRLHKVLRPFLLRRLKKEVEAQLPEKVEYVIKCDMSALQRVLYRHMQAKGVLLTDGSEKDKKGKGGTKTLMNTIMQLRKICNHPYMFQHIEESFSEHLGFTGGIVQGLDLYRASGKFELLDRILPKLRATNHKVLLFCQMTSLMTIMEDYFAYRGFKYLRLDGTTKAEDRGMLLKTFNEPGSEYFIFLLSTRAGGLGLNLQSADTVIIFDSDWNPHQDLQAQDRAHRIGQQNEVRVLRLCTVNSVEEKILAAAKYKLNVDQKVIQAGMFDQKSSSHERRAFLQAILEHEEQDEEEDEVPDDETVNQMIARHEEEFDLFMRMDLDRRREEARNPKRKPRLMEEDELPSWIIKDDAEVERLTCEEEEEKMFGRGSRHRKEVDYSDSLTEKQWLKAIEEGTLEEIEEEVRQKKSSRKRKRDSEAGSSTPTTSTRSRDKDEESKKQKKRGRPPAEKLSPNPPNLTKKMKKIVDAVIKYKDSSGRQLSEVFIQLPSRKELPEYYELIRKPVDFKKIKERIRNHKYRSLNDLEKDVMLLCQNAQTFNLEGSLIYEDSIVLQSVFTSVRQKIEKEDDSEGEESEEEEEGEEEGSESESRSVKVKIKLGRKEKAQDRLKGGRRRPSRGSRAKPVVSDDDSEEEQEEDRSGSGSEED
UniProt Q99MR0: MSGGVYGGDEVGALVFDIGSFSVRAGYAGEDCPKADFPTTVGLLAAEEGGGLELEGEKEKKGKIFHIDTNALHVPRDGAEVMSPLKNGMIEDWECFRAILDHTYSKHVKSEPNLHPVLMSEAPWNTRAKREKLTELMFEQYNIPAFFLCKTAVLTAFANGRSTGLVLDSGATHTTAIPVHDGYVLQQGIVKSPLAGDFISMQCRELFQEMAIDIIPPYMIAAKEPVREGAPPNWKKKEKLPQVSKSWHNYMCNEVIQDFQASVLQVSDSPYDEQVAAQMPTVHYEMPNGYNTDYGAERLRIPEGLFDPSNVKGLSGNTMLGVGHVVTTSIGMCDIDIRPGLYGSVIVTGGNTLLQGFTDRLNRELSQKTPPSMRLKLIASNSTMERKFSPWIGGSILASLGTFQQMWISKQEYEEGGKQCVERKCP
BAF53bΔHD (Q99MR0, form named): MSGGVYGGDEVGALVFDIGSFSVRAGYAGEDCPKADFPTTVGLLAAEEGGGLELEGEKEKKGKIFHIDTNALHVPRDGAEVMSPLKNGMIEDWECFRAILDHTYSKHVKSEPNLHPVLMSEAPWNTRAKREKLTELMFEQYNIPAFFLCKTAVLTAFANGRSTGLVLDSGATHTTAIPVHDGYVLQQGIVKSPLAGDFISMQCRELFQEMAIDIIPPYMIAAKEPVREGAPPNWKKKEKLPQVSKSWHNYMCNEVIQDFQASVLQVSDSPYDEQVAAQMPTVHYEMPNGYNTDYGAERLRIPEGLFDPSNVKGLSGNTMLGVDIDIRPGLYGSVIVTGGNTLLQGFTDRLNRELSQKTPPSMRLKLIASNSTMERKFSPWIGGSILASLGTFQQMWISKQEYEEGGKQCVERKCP

The assay addresses Brg1 (mouse (endogenous in HT22)) (UniProt Q3TKT4). In words: co-IP; immunoprecipitation against Brg1 (1 ug antibody ab70558) from TPER lysates of HT22 cells harvested 48 h after transfection with empty vector, WT Baf53b or Baf53bΔHD; western blots probed for BAF53b and Brg1. In general terms: In western blotting, separated proteins are transferred to a membrane and probed.

No constants are given. Whether binding was seen depends on the method and setting. Binding seen in cells or lysates may run through a third protein. Some entries that bind do so weakly or less than the wild type.

For “BAF53b (wild type) (from UniProt Q99MR0 1-426)”, the binding entry was “binds”.

As for BAF53bΔHD (from UniProt Q99MR0 1-426), the binding entry is reported as “binds”.
